From article PMC12579238

T1: CLN7 (human (endogenous in SH-SY5Y)) (UniProt Q8NHS3)
T1 sequence: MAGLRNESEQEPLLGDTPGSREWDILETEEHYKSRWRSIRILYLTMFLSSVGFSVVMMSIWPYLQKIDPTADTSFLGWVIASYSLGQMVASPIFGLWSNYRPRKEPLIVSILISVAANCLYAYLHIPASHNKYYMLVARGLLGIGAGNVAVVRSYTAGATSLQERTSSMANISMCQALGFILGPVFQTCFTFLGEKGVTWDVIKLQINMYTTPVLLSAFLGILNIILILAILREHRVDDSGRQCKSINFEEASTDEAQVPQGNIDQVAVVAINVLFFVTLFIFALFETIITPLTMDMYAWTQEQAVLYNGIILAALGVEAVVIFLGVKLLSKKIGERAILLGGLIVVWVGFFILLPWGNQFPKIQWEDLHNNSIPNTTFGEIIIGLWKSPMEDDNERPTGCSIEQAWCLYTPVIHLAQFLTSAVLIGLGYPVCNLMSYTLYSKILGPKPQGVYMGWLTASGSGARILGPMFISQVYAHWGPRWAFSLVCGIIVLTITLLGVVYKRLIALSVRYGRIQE


Biological target: T1, CLN7 (human (endogenous in SH-SY5Y))
Test: affinity purification with mass spectrometry; endogenous CLN7 immunoprecipitated from 2.5 mg SH-SY5Y lysate with a polyclonal anti-CLN7 antibody raised against L9 (351-421aa, Proteintech) on G-sepharose beads; IgG as non-specific binding control; 4 independent replicates; cells under steady state culture conditions

binding | Binder
binds | SPATA5 (protein, UniProt Q8NB90 1-893) MSSKKNRKRLNQSAENGSSLPSAASSCAEARAPSAGSDFAATSGTLTVTNLLEKVDDKIPKTFQNSLIHLGLNTMKSANICIGRPVLLTSLNGKQEVYTAWPMAGFPGGKVGLSEMAQKNVGVRPGDAIQVQPLVGAVLQAEEMDVALSDKDMEINEEELTGCILRKLDGKIVLPGNFLYCTFYGRPYKLQVLRVKGADGMILGGPQSDSDTDAQRMAFEQSSMETSSLELSLQLSQLDLEDTQIPTSRSTPYKPIDDRITNKASDVLLDVTQSPGDGSGLMLEEVTGLKCNFESAREGNEQLTEEERLLKFSIGAKCNTDTFYFISSTTRVNFTEIDKNSKEQDNQFKVTYDMIGGLSSQLKAIREIIELPLKQPELFKSYGIPAPRGVLLYGPPGTGKTMIARAVANEVGAYVSVINGPEIISKFYGETEAKLRQIFAEATLRHPSIIFIDELDALCPKREGAQNEVEKRVVASLLTLMDGIGSEVSEGQVLVLGATNRPHALDAALRRPGRFDKEIEIGVPNAQDRLDILQKLLRRVPHLLTEAELLQLANSAHGYVGADLKVLCNEAGLCALRRILKKQPNLPDVKVAGLVKITLKDFLQAMNDIRPSAMREIAIDVPNVSWSDIGGLESIKLKLEQAVEWPLKHPESFIRMGIQPPKGVLLYGPPGCSKTMIAKALANESGLNFLAIKGPELMNKYVGESERAVRETFRKARAVAPSIIFFDELDALAVERGSSLGAGNVADRVLAQLLTEMDGIEQLKDVTILAATNRPDRIDKALMRPGRIDRIIYVPLPDAATRREIFKLQFHSMPVSNEVDLDELILQTDAYSGAEIVAVCREAALLALEEDIQANLIMKRHFTQALSTVTPRIPESLRRFYEDYQEKSGLHTL
binds | SFRS2 (protein, UniProt Q01130 1-221) MSYGRPPPDVEGMTSLKVDNLTYRTSPDTLRRVFEKYGRVGDVYIPRDRYTKESRGFAFVRFHDKRDAEDAMDAMDGAVLDGRELRVQMARYGRPPDSHHSRRGPPPRRYGGGGYGRRSRSPRRRRRSRSRSRSRSRSRSRSRYSRSKSRSRTRSRSRSTSKSRSARRSKSKSSSVSRSRSRSRSRSRSRSPPPVSKRESKSRSRSKSPPKSPEEEGAVSS
binds | SMC6 (protein, UniProt Q96SB8 1-1091) MAKRKEENFSSPKNAKRPRQEELEDFDKDGDEDECKGTTLTAAEVGIIESIHLKNFMCHSMLGPFKFGSNVNFVVGNNGSGKSAVLTALIVGLGGRAVATNRGSSLKGFVKDGQNSADISITLRNRGDDAFKASVYGNSILIQQHISIDGSRSYKLKSATGSVVSTRKEELIAILDHFNIQVDNPVSVLTQEMSKQFLQSKNEGDKYKFFMKATQLEQMKEDYSYIMETKERTKEQIHQGEERLTELKRQCVEKEERFQSIAGLSTMKTNLESLKHEMAWAVVNEIEKQLNAIRDNIKIGEDRAARLDRKMEEQQVRLNEAEQKYKDIQDKLEKISEETNARAPECMALKADVVAKKRAYNEAEVLYNRSLNEYKALKKDDEQLCKRIEELKKSTDQSLEPERLERQKKISWLKERVKAFQNQENSVNQEIEQFQQAIEKDKEEHGKIKREELDVKHALSYNQRQLKELKDSKTDRLKRFGPNVPALLEAIDDAYRQGHFTYKPVGPLGACIHLRDPELALAIESCLKGLLQAYCCHNHADERVLQALMKRFYLPGTSRPPIIVSEFRNEIYDVRHRAAYHPDFPTVLTALEIDNAVVANSLIDMRGIETVLLIKNNSVARAVMQSQKPPKNCREAFTADGDQVFAGRYYSSENTRPKFLSRDVDSEISDLENEVENKTAQILNLQQHLSALEKDIKHNEELLKRCQLHYKELKMKIRKNISEIRELENIEEHQSVDIATLEDEAQENKSKMKMVEEHMEQQKENMEHLKSLKIEAENKYDAIKFKINQLSELADPLKDELNLADSEVDNQKRGKRHYEEKQKEHLDTLNKKKRELDMKEKELEEKMSQARQICPERIEVEKSASILDKEINRLRQKIQAEHASHGDREEIMRQYQEARETYLDLDSKVRTLKKFIKLLGEIMEHRFKTYQQFRRCLTLRCKLYFDNLLSQRAYCGKMNFDHKNETLSISVQPGEGNKAAFNDMRALSGGERSFSTVCFILSLWSIAESPFRCLDEFDVYMDMVNRRIAMDLILKMADSQRFRQFILLTPQSMSSLPSSKLIRILRMSDPERGQTTLPFRPVTQEEDDDQR
binds | SMARCAL1 (protein, UniProt Q9NZC9 1-954) MSLPLTEEQRKKIEENRQKALARRAEKLLAEQHQRTSSGTSIAGNPFQAKQGPSQNFPRESCKPVSHGVIFKQQNLSSSSNADQRPHDSHSFQAKGIWKKPEEMPTACPGHSPRSQMALTGISPPLAQSPPEVPKQQLLSYELGQGHAQASPEIRFTPFANPTHKPLAKPKSSQETPAHSSGQPPRDAKLEAKTAKASPSGQNISYIHSSSESVTPRTEGRLQQKSGSSVQKGVNSQKGKCVRNGDRFQVLIGYNAELIAVFKTLPSKNYDPDTKTWNFSMNDYSALMKAAQSLPTVNLQPLEWAYGSSESPSTSSEGQAGLPSAPSLSFVKGRCMLISRAYFEADISYSQDLIALFKQMDSRRYDVKTRKWSFLLEEHSKLIAKVRCLPQVQLDPLPTTLTLAFASQLKKTSLSLTPDVPEADLSEVDPKLVSNLMPFQRAGVNFAIAKGGRLLLADDMGLGKTIQAICIAAFYRKEWPLLVVVPSSVRFTWEQAFLRWLPSLSPDCINVVVTGKDRLTAGLINIVSFDLLSKLEKQLKTPFKVVIIDESHFLKNSRTARCRAAMPVLKVAKRVILLSGTPAMSRPAELYTQIIAVKPTFFPQFHAFGLRYCDAKRMPWGWDYSGSSNLGELKLLLEEAVMLRRLKSDVLSQLPAKQRKIVVIAPGRINARTRAALDAAAKEMTTKDKTKQQQKDALILFFNRTAEAKIPSVIEYILDLLESGREKFLVFAHHKVVLDAITQELERKHVQHIRIDGSTSSAEREDLCQQFQLSERHAVAVLSITAANMGLTFSSADLVVFAELFWNPGVLIQAEDRVHRIGQTSSVGIHYLVAKGTADDYLWPLIQEKIKVLAEAGLSETNFSEMTESTDYLYKDPKQQKIYDLFQKSFEKEGSDMELLEAAESFDPGSASGTSGSSSQNMGDTLDESSLTASPQKKRRFEFFDNWDSFTSPL
binds | BCR (protein, UniProt P11274 1-1271) MVDPVGFAEAWKAQFPDSEPPRMELRSVGDIEQELERCKASIRRLEQEVNQERFRMIYLQTLLAKEKKSYDRQRWGFRRAAQAPDGASEPRASASRPQPAPADGADPPPAEEPEARPDGEGSPGKARPGTARRPGAAASGERDDRGPPASVAALRSNFERIRKGHGQPGADAEKPFYVNVEFHHERGLVKVNDKEVSDRISSLGSQAMQMERKKSQHGAGSSVGDASRPPYRGRSSESSCGVDGDYEDAELNPRFLKDNLIDANGGSRPPWPPLEYQPYQSIYVGGMMEGEGKGPLLRSQSTSEQEKRLTWPRRSYSPRSFEDCGGGYTPDCSSNENLTSSEEDFSSGQSSRVSPSPTTYRMFRDKSRSPSQNSQQSFDSSSPPTPQCHKRHRHCPVVVSEATIVGVRKTGQIWPNDGEGAFHGDADGSFGTPPGYGCAADRAEEQRRHQDGLPYIDDSPSSSPHLSSKGRGSRDALVSGALESTKASELDLEKGLEMRKWVLSGILASEETYLSHLEALLLPMKPLKAAATTSQPVLTSQQIETIFFKVPELYEIHKEFYDGLFPRVQQWSHQQRVGDLFQKLASQLGVYRAFVDNYGVAMEMAEKCCQANAQFAEISENLRARSNKDAKDPTTKNSLETLLYKPVDRVTRSTLVLHDLLKHTPASHPDHPLLQDALRISQNFLSSINEEITPRRQSMTVKKGEHRQLLKDSFMVELVEGARKLRHVFLFTDLLLCTKLKKQSGGKTQQYDCKWYIPLTDLSFQMVDELEAVPNIPLVPDEELDALKIKISQIKNDIQREKRANKGSKATERLKKKLSEQESLLLLMSPSMAFRVHSRNGKSYTFLISSDYERAEWRENIREQQKKCFRSFSLTSVELQMLTNSCVKLQTVHSIPLTINKEDDESPGLYGFLNVIVHSATGFKQSSNLYCTLEVDSFGYFVNKAKTRVYRDTAEPNWNEEFEIELEGSQTLRILCYEKCYNKTKIPKEDGESTDRLMGKGQVQLDPQALQDRDWQRTVIAMNGIEVKLSVKFNSREFSLKRMPSRKQTGVFGVKIAVVTKRERSKVPYIVRQCVEEIERRGMEEVGIYRVSGVATDIQALKAAFDVNNKDVSVMMSEMDVNAIAGTLKLYFRELPEPLFTDEFYPNFAEGIALSDPVAKESCMLNLLLSLPEANLLTFLFLLDHLKRVAEKEAVNKMSLHNLATVFGPTLLRPSEKESKLPANPSQPITMTDSWSLEVMSQVQVLLYFLQLEAIPAPDSKRQSILFSTEV
binds | SPATA5L1 (protein, UniProt Q9BVQ7 1-753) MAPDSDPFPEGPLLKLLPLDARDRGTQRCRLGPAALHALGARLGSAVKISLPDGGSCLCTAWPRRDGADGFVQLDPLCASPGAAVGASRSRRSLSLNRLLLVPCPPLRRVAVWPVLRERAGAPGARNTAAVLEAAQELLRNRPISLGHVVVAPPGAPGLVAALHIVGGTPSPDPAGLVTPRTRVSLGGEPPSEAQPQPEVPLGGLSEAADSLRELLRLPLRYPRALTALGLAVPRGVLLAGPPGVGKTQLVRAVAREAGAELLAVSAPALQGSRPGETEENVRRVFQRARELASRGPSLLFLDEMDALCPQRGSRAPESRVVAQVLTLLDGASGDREVVVVGATNRPDALDPALRRPGRFDREVVIGTPTLKQRKEILQVITSKMPISSHVDLGLLAEMTVGYVGADLTALCREAAMHALLHSEKNQDNPVIDEIDFLEAFKNIQPSSFRSVIGLMDIKPVDWEEIGGLEDVKLKLKQSIEWPLKFPWEFVRMGLTQPKGVLLYGPPGCAKTTLVRALATSCHCSFVSVSGADLFSPFVGDSEKVLSQIFRQARASTPAILFLDEIDSILGARSASKTGCDVQERVLSVLLNELDGVGLKTIERRGSKSSQQEFQEVFNRSVMIIAATNRPDVLDTALLRPGRLDKIIYIPPPDHKGRLSILKVCTKTMPIGPDVSLENLAAETCFFSGADLRNLCTEAALLALQENGLDATTVKQEHFLKSLKTVKPSLSCKDLALYENLFKKEGFSNVEGI

No constants are given. Whether binding was seen depends on the method and setting. Binding seen in cells or lysates may run through a third protein. These calls come from enrichment with a bait or labelling near it, and not all partners need be listed.
